Measured values published in article PMC9507357.

Protein sequences, listed by entry. Tags and fused reporters are not part of them.
UniProt Q9BRP0: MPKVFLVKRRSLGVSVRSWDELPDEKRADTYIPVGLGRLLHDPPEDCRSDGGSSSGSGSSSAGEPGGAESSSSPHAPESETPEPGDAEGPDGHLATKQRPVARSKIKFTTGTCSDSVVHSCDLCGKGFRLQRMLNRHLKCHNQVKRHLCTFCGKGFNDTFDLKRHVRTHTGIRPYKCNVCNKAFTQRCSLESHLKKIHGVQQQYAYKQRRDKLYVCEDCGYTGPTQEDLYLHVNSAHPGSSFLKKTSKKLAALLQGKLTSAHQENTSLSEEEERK
UniProt Q00987: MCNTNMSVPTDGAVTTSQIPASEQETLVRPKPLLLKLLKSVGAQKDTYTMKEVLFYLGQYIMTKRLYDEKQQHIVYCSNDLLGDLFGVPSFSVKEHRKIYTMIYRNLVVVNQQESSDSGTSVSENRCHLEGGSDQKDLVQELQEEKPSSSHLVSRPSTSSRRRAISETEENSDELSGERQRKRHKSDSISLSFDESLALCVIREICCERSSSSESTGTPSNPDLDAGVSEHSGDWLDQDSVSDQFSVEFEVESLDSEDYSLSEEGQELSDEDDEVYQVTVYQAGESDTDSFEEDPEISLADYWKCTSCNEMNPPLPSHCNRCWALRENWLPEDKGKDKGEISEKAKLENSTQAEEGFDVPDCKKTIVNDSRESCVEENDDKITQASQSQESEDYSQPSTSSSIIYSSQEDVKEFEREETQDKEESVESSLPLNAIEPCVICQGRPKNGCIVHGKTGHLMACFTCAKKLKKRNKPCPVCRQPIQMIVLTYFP
UniProt O75376: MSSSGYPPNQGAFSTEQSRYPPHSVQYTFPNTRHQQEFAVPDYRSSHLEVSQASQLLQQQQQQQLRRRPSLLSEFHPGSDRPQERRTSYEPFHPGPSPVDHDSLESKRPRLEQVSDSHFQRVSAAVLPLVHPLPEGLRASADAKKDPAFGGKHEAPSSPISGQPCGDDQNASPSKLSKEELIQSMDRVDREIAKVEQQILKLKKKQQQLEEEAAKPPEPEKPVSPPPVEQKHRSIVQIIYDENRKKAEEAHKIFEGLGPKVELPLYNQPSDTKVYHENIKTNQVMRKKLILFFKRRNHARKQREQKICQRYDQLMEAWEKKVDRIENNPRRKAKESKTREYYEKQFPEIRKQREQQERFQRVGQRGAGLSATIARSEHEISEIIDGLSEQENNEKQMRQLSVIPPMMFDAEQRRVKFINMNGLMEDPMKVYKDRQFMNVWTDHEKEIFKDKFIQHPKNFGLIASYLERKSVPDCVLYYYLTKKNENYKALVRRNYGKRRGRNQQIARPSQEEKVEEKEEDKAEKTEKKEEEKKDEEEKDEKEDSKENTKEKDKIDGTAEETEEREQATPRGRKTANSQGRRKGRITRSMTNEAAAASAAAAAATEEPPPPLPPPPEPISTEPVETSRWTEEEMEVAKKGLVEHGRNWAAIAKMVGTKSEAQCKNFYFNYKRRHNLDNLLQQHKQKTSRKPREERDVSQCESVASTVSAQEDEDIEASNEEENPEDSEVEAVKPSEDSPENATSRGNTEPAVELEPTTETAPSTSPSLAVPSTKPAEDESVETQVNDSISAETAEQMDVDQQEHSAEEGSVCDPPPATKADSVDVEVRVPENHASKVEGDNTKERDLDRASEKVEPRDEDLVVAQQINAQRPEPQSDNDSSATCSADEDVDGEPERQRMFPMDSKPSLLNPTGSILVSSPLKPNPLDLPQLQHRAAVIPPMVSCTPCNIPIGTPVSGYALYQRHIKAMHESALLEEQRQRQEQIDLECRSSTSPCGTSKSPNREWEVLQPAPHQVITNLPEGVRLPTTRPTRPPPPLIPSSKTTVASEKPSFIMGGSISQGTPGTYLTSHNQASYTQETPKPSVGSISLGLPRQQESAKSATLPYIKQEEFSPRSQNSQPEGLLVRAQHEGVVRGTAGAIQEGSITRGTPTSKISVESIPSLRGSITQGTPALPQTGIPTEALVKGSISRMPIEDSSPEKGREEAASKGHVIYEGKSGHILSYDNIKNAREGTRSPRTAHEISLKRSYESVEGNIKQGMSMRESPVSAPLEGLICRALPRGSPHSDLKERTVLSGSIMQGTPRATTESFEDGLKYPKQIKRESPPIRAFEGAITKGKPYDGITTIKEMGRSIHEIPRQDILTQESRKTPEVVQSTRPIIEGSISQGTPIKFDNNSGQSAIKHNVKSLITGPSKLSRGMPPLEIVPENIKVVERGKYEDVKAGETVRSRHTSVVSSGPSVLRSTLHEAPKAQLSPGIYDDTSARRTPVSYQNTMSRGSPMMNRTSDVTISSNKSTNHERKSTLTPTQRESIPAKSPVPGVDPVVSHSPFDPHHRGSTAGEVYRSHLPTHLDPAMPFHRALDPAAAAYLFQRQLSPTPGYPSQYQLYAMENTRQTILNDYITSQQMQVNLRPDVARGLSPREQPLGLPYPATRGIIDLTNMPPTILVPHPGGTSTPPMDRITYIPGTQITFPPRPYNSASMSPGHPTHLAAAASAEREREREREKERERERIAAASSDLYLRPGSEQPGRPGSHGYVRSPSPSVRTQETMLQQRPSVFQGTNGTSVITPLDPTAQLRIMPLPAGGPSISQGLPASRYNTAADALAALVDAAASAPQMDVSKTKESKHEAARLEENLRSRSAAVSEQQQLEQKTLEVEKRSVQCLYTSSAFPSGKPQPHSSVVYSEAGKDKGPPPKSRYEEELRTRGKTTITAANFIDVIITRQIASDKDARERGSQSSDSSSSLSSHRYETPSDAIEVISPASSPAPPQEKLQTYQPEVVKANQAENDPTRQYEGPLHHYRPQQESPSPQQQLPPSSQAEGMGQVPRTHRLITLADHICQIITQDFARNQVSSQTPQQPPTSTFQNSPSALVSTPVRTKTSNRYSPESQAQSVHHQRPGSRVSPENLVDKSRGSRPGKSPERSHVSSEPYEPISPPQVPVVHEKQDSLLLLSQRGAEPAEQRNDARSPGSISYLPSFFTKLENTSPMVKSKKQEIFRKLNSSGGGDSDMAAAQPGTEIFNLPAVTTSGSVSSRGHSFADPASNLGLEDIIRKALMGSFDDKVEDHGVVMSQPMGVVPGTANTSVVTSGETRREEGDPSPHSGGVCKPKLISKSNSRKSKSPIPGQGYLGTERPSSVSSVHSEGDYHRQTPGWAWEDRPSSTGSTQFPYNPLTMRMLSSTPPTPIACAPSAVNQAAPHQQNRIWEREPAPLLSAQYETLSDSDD
UniProt P35222: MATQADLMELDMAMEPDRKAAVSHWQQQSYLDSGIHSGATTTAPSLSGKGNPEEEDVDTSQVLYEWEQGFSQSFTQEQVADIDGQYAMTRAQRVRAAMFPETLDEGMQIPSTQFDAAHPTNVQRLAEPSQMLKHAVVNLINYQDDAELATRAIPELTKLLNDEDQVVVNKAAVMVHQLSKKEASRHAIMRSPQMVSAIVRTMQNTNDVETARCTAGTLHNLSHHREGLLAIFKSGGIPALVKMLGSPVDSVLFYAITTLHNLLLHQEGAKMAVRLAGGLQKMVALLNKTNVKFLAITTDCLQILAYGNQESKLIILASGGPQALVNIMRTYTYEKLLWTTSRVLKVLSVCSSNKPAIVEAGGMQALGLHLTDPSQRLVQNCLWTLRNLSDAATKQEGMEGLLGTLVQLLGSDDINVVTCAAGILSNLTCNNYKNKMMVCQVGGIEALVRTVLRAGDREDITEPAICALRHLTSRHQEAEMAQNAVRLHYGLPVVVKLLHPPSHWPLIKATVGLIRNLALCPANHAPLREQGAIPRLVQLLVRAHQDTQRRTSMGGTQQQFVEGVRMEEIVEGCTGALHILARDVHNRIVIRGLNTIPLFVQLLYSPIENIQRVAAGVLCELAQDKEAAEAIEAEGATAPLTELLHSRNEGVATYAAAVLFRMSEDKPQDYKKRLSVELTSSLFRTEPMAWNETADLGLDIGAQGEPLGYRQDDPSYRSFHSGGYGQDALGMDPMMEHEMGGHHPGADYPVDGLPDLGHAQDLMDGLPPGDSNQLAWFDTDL

Target: FLAG-tagged OVOL2 (OVO-like zinc finger 2) (UniProt Q9BRP0)
Assay: affinity purification with mass spectrometry; lysate of 10^8 MCF7 cells stably expressing FLAG-OVOL2 (control: FLAG); anti-FLAG agarose 4 h at 4 °C in IP buffer (20 mM Tris pH 8.0, 0.25 M NaCl, 0.5% NP-40, 5 mM EDTA); eluted with FLAG peptide; SDS-PAGE, silver stain, differential bands by nanoLC-MS/MS

binding, binds:
MDM2 (mouse double minute 2 homolog), endogenous (from UniProt Q00987 1-491) (enzyme)
NCoR (nuclear receptor co-repressor), endogenous (from UniProt O75376 1-2440)
β-catenin, endogenous (from UniProt P35222 1-781)

No constants are given. Whether binding was seen depends on the method and setting. In cells and extracts the contact can be indirect. These calls come from enrichment with a bait or labelling near it, and not all partners need be listed.
